# Out of some 400,000 compounds screened, about 3,700 (0.93%) were called active. Inconclusive results, whose numbers are uncertain, are shown with a selection of clear calls. Calls come from the whole dose curve; as a rule, active = well fitted inhibition curve with a large enough effect; inconclusive = small, poorly fitted or top-dose-only effect, or another doubt; inactive = no such curve, though single readings can be large or run the other way. A potency beside an inconclusive call is a rough fit, not a confirmed value.
# Amino acid sequences for entries named in this document (tags omitted).
# UniProt P11473, whole entry, looked up: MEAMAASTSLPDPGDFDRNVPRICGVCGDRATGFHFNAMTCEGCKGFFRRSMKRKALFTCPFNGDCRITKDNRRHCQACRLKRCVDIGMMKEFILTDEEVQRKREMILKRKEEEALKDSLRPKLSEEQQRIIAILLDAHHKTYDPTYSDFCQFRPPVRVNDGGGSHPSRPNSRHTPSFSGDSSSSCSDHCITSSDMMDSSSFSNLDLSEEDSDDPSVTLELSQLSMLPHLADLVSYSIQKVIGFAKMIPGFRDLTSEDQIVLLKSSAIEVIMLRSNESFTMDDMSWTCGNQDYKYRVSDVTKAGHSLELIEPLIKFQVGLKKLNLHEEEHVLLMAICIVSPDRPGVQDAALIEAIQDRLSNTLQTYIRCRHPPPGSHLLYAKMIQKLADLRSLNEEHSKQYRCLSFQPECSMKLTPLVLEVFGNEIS
# Molecular target: Vitamin D3 receptor (Homo sapiens) (UniProt P11473)
# Experiment: Inhibitors of the vitamin D receptor (VDR): qHTS
# Settings: VDR-SRC2-3 peptide fluorescence polarization, 2 h; max response, negative = inhibition: hits give low values
# Summary of the method: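 Inhibition of the VDR/SRC2-3 peptide interaction is quantified by fluorescence polarization. Compounds (23 nl, pintool) incubate with the reagents for 2 hours at ambient room temperature.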
# % is set by controls: 0 for no effect and ±100 for the full control effect; potency is the fitted concentration of half-maximal effect.
SMILES,Potency,"max response, negative = inhibition"
COc1cccc(C(=O)/C=C/c2ccc(SC)cc2)c1,"inconclusive: 10 µM [inhibitor, partial curve, poor fit]",
Oc1ccc(-c2[nH]ncc2-c2ccc(Cl)cc2)c(O)c1,,inactive: 10.2%
Cc1cccc2sc(NC(=O)C3CCN(S(=O)(=O)c4cc([N+](=O)[O-])ccc4Cl)CC3)nc12,,inactive: -11.3%
COc1ccccc1NC(=O)c1cc2cc(Br)ccc2oc1=N,active: 89.1 µM,
CCc1ccc2oc(C(=O)Nc3ccccc3OC)cc(=O)c2c1,,inactive: 9.05%
CCCCCCCCCC(=O)NC(CN1CCOCC1)[C@H](O)c1ccccc1 (some centres not stated),,inactive: 5.94%
CC(OC(=O)C1=Cc2ccccc2OC1)C(=O)NCC1CCCO1 (configuration not stated),"inconclusive: 79.4 µM [inhibitor, partial curve, poor fit]",
COc1cccc(/C=C2\SC(=S)N(CCCC(=O)N(CCO)c3ccccc3)C2=O)c1,"inconclusive: 79.4 µM [inhibitor, single point]",
CCCSS/C(CCO)=C(/C)N(C=O)Cc1cnc(C)nc1N,active: 25.1 µM,
CCOC(=O)C1CCCN(S(=O)(=O)c2cc3[nH]c(=O)c(=O)[nH]c3cc2C)C1 (configuration not stated),,inactive: -7.84%
Cc1cc(OCC(=O)NC(Cc2ccc(Cl)cc2)C(=O)O)c2c(C)c(C)c(=O)oc2c1 (configuration not stated),"inconclusive: 70.8 µM [inhibitor, partial curve, poor fit]",
O=S(=O)(Oc1ccccc1C(=S)N1CCOCC1)c1ccc(Cl)cc1,"inconclusive: 79.4 µM [inhibitor, partial curve, poor fit]",
O=C(CCCCC(=O)Sc1ccccc1)Sc1ccccc1,active: 79.4 µM,
C=CCNC(=O)CCCOc1ccc(C)cc1,,inactive: 8.24%
Nc1c(S(=O)(=O)O)cc(Nc2ccc(Cl)cc2)c2c1C(=O)c1ccccc1C2=O,active: 31.6 µM,
c1ccc(-c2cc(-c3ccccc3)on2)cc1,"inconclusive: 28.2 µM [inhibitor, partial curve, poor fit]",
Cn1cnnc1Sc1ccc(C(=O)NCCC23CC4CC(CC(C4)C2)C3)cc1[N+](=O)[O-],,inactive: -1.03%
CCc1c(C)sc2c1CCN(Cc1cccc(OC)c1)C2c1ccccc1 (configuration not stated),,inactive: 16.6%
Cc1ccc(CNC(=O)C(NS(=O)(=O)c2cccs2)C(C)C)cc1 (configuration not stated),"inconclusive: 100 µM [inhibitor, single point]",
C=CCN1C(=O)/C(=C\c2ccc(OC(=O)c3ccco3)c(OC)c2)SC1=S,,inactive: -2.28%
CSCc1ccc(C(=O)N2CCC(CCC(=O)N(C)Cc3ccccc3)CC2)o1,"inconclusive: 70.8 µM [inhibitor, partial curve]",
CCOC(=O)/C=C/C(=O)OCC(=O)Nc1ccc(OC)c(Cl)c1,active: 79.4 µM,
COc1ccc(N(Cc2ccccc2)C(=O)c2nc(S(C)(=O)=O)ncc2Cl)cc1,"inconclusive: 15.8 µM [inhibitor, partial curve, poor fit]",
FC(F)(F)c1cc(N2CCOCC2)nc(-c2ccccc2)n1,"inconclusive: 56.2 µM [inhibitor, partial curve, poor fit]",

SMILES,Potency,"max response, negative = inhibition"
Cc1ccc2cc(CN(C(=O)c3ccco3)c3cccc(C)c3C)c(=O)[nH]c2c1,"inconclusive: 89.1 µM [inhibitor, single point]",
O=C(CCl)N(c1ccc(Cl)cc1)c1c[nH]c2ccccc12,"inconclusive: 89.1 µM [inhibitor, partial curve, poor fit]",
CCOC(=O)C1=NNC(C(=O)c2ccccc2)C1c1ccc(OC)cc1 (configuration not stated),"inconclusive: 100 µM [inhibitor, single point]",
COc1ccc(-c2noc(CCCC(=O)Nc3cccc(Cl)c3C)n2)cc1,,inactive: 10.2%
Cn1c(=O)c2c(nc(CN3CCc4ccccc4C3)n2Cc2cccc(Cl)c2)n(C)c1=O,"inconclusive: 89.1 µM [inhibitor, single point]",
N#Cc1c(NC(=O)c2cc(C3CC3)on2)sc2c1CCC2,"inconclusive: 79.4 µM [inhibitor, partial curve, poor fit]",
Cc1ccc(/C=C/C(=O)NCC2COc3ccccc3O2)o1 (configuration not stated),"inconclusive: 79.4 µM [inhibitor, partial curve]",
COc1ccc([C@H]2[C@H](C(C)=O)N3N=Cc4ccccc4C3C23C(=O)OC(C)(C)OC3=O)cc1 (some centres not stated),"inconclusive: 89.1 µM [inhibitor, single point]",
CC(=O)c1ccc(S(=O)(=O)Nc2ccc(-c3cn4c(C)csc4n3)cc2)cc1,active: 25.1 µM,
COc1cccc(OCC(O)CN2CCN(C(c3ccccc3)c3ccccc3)CC2)c1 (configuration not stated),,inactive: -10.8%
Cc1cc(C)c(S(=O)(=O)N2CCCCC2CCNC(=O)C(=O)NC2CC2)c(C)c1 (configuration not stated),"inconclusive: 56.2 µM [inhibitor, single point]",
CN1/C(=C\C(=O)Nc2ccc(F)cc2)C(C)(C)c2ccccc21,,inactive: 1.13%
CNc1nc(-c2ccc3c(c2)CCN3C(=O)c2ccccc2F)c(C)s1,"inconclusive: 100 µM [inhibitor, single point]",
CCOc1ccc(-c2nnn(CCC#N)n2)cc1OC,"inconclusive: 79.4 µM [inhibitor, single point]",
Cc1c(Br)c(O)c(Br)c(O)c1/C=N/n1c(-c2ccccc2)n[nH]c1=S,"inconclusive: 56.2 µM [inhibitor, partial curve, poor fit]",
C=CCNC(=S)NNC(=O)CCC(O)CCCCC (configuration not stated),,inactive: -2.69%
Cc1sc2ccccc2[n+]1CC(=O)O,active: 22.4 µM,
Cc1ccc(C)c(S(=O)(=O)NCc2ccc(C(=O)N3CC(C)OC(C)C3)cc2)c1 (configuration not stated),"inconclusive: 10 µM [inhibitor, partial curve, poor fit]",
Cc1ccc(Nc2nnns2)cc1,active: 79.4 µM,
O=C(NC(=S)Nc1ccccc1Cl)c1csnn1,"inconclusive: 89.1 µM [inhibitor, partial curve]",
O=C(Cn1nc(Cl)nc1Cl)Nc1ccccc1,,inactive: 7.37%
Cc1ccc([N+](=O)[O-])cc1S(=O)(=O)n1ccnc1C,"inconclusive: 39.8 µM [inhibitor, single point]",
Cc1cc(/C=C2/C(=N)N3C(=NC2=O)SN=C3S(C)(=O)=O)c(C)n1-c1ccccc1F,"inconclusive: 89.1 µM [inhibitor, single point]",
Nc1cc(N)nc(SCC(=O)N2CCc3ccccc32)n1,"inconclusive: 11.2 µM [inhibitor, partial curve, poor fit]",

SMILES,Potency,"max response, negative = inhibition"
CCCn1c(SCC(=O)NNC(=O)c2ccc(C)cc2)nnc1C(C)C,"inconclusive: 79.4 µM [inhibitor, single point]",
O=C1C=C(c2ccc(Cl)cc2)C(=O)N1Nc1ccccc1,active: 22.4 µM,
Cc1c(OCC(=O)NC(Cc2ccc(Cl)cc2)C(=O)O)ccc2c3c(c(=O)oc12)CCCC3 (configuration not stated),"inconclusive: 100 µM [inhibitor, single point]",
COc1ccccc1Nc1nc(-c2ccccc2)nc2ccccc12,,inactive: -2.43%
NC(=O)c1cc[n+](CC2=C(C(=O)O)N3C(=O)[C@@H](NC(=O)[C@H](c4ccccc4)S(=O)(=O)[O-])[C@@H]3SC2)cc1,"inconclusive: 20 µM [inhibitor, partial curve]",
COc1ccc2nc(NNC(=O)c3cc(=O)c4ccccc4o3)sc2c1,active: 31.6 µM,
O=C(Nc1ccccc1C(=O)O)c1ccccc1,,inactive: -8.86%
CCCCn1c(N)c(N(CC(C)C)C(=O)Cn2c(=O)cnc3ccccc32)c(=O)[nH]c1=O,,inactive: 12.9%
COc1cc(CNC(=O)C2CCC(=O)N(C3CCCCCC3)C2)cc(OC)c1 (configuration not stated),,inactive: 9.65%
CCC(C)CCCCCCCCCCC(=O)O (configuration not stated),"inconclusive: 35.5 µM [inhibitor, partial curve, poor fit]",
COC(=O)c1ccc(/C=N/NC(=O)CNc2cccc(C)c2)cc1,,inactive: -6.92%
O=C(NCc1ccccc1)c1onc(CSc2ccccc2)c1C(=O)NCC1CC1,,inactive: -10.8%
COc1ccc(C=O)cc1COc1ccc([N+](=O)[O-])c(C)c1,,inactive: -2.39%
O=[N+]([O-])c1cc(Br)c(O)c(/C=N/Nc2nnnn2-c2cccc3ccccc23)c1,"inconclusive: 89.1 µM [inhibitor, single point]",
N#C/C(=C\c1cccs1)C(=O)c1ccccc1Cl,active: 35.5 µM,
CC1CCN(S(=O)(=O)N2CCC(C(=O)NCCN3CCOCC3)CC2)CC1,"inconclusive: 89.1 µM [inhibitor, single point]",
Cc1nn(-c2cccc(Cl)c2)c2c1C(c1cccnc1)C(C#N)=C(N)O2 (configuration not stated),"inconclusive: 79.4 µM [inhibitor, partial curve, poor fit]",
CS(=O)(=O)Nc1cccc(-c2ccc3ncnc(N4CCOCC4)c3c2)c1,active: 44.7 µM,
COc1ccc(NC(=O)N2CCC(c3nc4ccccc4[nH]3)CC2)cc1,,inactive: -5.86%
C=CSc1sc(Cl)c(N(CC)CC)c1[N+](=O)[O-],,inactive: -27.4%
O=C(O)c1ccccc1Nc1ccc(CCc2ccc(Cl)c(Cl)c2)cc1,active: 35.5 µM,
CCOC(=O)C(Sc1ncc(C#N)c(N)n1)C(C)C (configuration not stated),"inconclusive: 56.2 µM [inhibitor, partial curve, poor fit]",
O=C(Nc1cc(S(=O)(=O)N2CCOCC2)ccc1N1CCCCC1)c1cc(-c2ccccn2)nc2ccccc12,active: 44.7 µM,
O=C(Nc1ccccc1C(=O)NCc1cccnc1)c1ccc(Cl)cc1Cl,"inconclusive: 89.1 µM [inhibitor, partial curve, poor fit]",

# Shown with bars between the fields: 3 of the compounds above.
SMILES | Potency | max response, negative = inhibition
CCCn1c(SCC(=O)NNC(=O)c2ccc(C)cc2)nnc1C(C)C | inconclusive: 79.4 µM [inhibitor, single point] | 
CCC(C)CCCCCCCCCCC(=O)O (configuration not stated) | inconclusive: 35.5 µM [inhibitor, partial curve, poor fit] | 
O=C(Nc1cc(S(=O)(=O)N2CCOCC2)ccc1N1CCCCC1)c1cc(-c2ccccn2)nc2ccccc12 | active: 44.7 µM | 

# Reference: PubChem BioAssay AID504847 (National Center for Advancing Translational Sciences (NCATS), 2011)
